Measurements: US20260151398A1, “COMPOUNDS FOR REDUCING CHOLESTEROL AND TREATING LIVER AND KIDNEY DISEASE” (McMaster University, priority 2021, published 2026)
At least one compound was matched to its structure with a doubt left.

Tests used:
[1] = test system: ER stress markers (GRP78, ATF4, pPERK, IRE1α, sXBP1, ATF6); assay: ER stress / UPR readouts in hepatocytes; assay type: cell-based, human; details: HuH7; TG 100 nM, CPA 10 μM
Protocol: Cells were washed in phosphate-buffered saline (PBS), lysed in 4× SDS-PAGE lysis buffer and separated on 7-10% polyacrylamide gels in denaturing conditions. Gels were transferred to nitrocellulose membranes using the BioRad mini trans-blot system, blocked in 5% skim milk in tris-buffered saline (TBS) for 1 h and incubated in primary antibody overnight for 16 h at 4° C. Membranes were then exposed to horse radish peroxidase conjugated secondary antibodies and visualized using EZ-ECL chemiluminescent reagent (Froggabio). Band intensities were quantified using ImageJ software ([…]) against membranes reprobed for housekeeping proteins.
Following treatment, live cells were incubated in complete DMEM containing 5 μM Thioflavin-T (ThT; Thermofisher Scientific) for 15 minutes. Cells were then fixed in 4% paraformaldehyde and mounted with permafluor. Fluorescent staining was visualized using the EVOS FL colour system at either 20 or 40× magnification.
RNA purification/isolation was performed using RNeasy mini kits (Qiagen) and normalized to 2 μg RNA using a NanoDrop® spectrophotometer. Samples were then reverse transcribed into cDNA using Superscript Vilo cDNA Synthesis kit (Thermofisher Scientific). Real-time PCR was executed with Fast SYBR Green (Thermo Fisher Scientific) using the ΔΔct method on the ViiA7 real-time PCR platform (Thermofisher Scientific). […]

PCSK9 = PCSK9 expression in hepatocytes (immunoblot, real-time PCR); assay type: cell-based, human, mouse; details: HuH7; TG 100 nM, CPA 10 μM
Protocol: HuH7 and HepG2 cells were routinely grown in complete Dulbecco's Modified Eagle's Medium (Gibco, Thermofisher Scientific) supplemented with 10% fetal bovine serum (Sigma-Aldrich) and 100 U/ml of penicillin and streptomycin (Sigma-Aldrich). […] All cell treatments were carried out for 24 h unless otherwise stated. Cells were transfected with a cocktail consisting of plasmid DNA (1 μg), X-tremeGENE HP (3 μl; Thermofisher Scientific) and opti-MEM (100 μl; Thermofischer Scientific) per 1 ml complete medium containing plated cells. Human PCSK9 was overexpressed using the bicistronic pIRES-EGFP plasmid; calnexin using the mPA-GFP-N1 plasmid. […]
Cells were washed in phosphate-buffered saline (PBS), lysed in 4× SDS-PAGE lysis buffer and separated on 7-10% polyacrylamide gels in denaturing conditions. […] Band intensities were quantified using ImageJ software ([…]) against membranes reprobed for housekeeping proteins. […]
Cultured immortalized hepatocytes known to express and secrete PCSK9 (Lebeau, P., et al., 2017), including HuH7 and HepG2 cells, as well as primary mouse- and human-hepatocytes (PMH and PHH, respectively), were treated with CF for 24 h and assessed for PCSK9 expression via immunoblots and real-time PCR (FIG. 1 A to D). […]

## CC(=O)C1=C(O)[C@@H]2[C@H]3c4c[nH]c5cccc(c45)C[C@H]3C(C)(C)N2C1=O [cyclopiazonic acid]
[1]
  GRP78 expression: increased the expression of GRP78
PCSK9
  PCSK9 and SREBP2 expression on ER Ca2+ depletion: increased PCSK9 and SREBP2 expression
